Laboratory results taken from the supplement of paper PMC12823440, “Inhibitors supercharge kinase turnover through native proteolytic circuits” (Nature, 2025).
Where a name gives a salt, the structure may show the parent alone. Some of the results follow. Hit calls seldom repeat between salt and free forms of one compound.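 Kinases, fused to nanoluciferase, were expressed in K562 cells; luminescence was measured every 4 h from 2 to 18 h as percent of control (DMSO = 100%, positive control = 0%). A time point is decreased if signal falls significantly (2 sigma). Hits were called by the authors by a rule that is not shown; the count of time points alone does not decide it.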

The chains behind the UniProt entries cited, without tags or fusion partners. Where a name states a change or a piece, a line headed by the entry shows the natural chain unless it says otherwise.
UniProt P00519, whole entry: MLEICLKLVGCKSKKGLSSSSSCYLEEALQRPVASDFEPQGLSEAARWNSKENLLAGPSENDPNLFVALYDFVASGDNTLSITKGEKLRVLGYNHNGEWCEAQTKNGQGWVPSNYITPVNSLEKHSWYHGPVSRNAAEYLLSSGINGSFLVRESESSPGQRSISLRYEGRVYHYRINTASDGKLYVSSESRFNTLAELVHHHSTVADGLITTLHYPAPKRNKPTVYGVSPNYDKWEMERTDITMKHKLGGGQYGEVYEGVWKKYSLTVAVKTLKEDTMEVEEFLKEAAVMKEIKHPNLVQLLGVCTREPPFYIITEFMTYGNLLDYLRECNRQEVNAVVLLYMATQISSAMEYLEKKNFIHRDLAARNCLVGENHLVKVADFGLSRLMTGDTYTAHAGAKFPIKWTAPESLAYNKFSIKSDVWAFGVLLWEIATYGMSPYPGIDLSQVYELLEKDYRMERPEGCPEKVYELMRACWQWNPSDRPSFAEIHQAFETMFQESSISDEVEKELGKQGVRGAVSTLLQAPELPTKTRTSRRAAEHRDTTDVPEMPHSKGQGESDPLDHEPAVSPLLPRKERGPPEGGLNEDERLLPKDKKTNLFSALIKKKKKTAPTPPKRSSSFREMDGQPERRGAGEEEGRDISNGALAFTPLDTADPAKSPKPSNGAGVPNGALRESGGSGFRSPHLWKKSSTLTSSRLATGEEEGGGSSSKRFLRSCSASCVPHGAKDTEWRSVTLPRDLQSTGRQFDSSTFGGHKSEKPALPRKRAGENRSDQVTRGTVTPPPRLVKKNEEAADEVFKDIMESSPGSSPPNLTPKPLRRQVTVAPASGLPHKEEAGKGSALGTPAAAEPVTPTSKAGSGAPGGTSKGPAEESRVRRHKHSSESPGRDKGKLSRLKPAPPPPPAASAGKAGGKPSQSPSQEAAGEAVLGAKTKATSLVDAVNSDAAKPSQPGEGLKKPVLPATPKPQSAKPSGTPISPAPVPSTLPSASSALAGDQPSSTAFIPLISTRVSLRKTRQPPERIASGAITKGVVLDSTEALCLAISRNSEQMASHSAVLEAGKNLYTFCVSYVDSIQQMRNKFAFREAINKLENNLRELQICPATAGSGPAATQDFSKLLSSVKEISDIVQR
UniProt P31749: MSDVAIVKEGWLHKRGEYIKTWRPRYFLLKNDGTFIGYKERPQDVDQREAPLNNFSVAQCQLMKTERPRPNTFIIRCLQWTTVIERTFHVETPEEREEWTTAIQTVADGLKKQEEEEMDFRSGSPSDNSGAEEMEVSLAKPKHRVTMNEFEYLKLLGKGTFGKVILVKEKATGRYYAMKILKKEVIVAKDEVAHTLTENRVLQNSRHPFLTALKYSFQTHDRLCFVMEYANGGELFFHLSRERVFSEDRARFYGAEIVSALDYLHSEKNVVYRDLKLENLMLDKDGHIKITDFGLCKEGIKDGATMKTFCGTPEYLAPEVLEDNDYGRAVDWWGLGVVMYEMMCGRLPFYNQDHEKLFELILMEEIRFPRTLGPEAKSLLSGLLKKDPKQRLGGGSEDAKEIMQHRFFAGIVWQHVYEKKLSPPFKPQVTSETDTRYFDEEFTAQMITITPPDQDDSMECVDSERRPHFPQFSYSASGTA
UniProt Q9UM73: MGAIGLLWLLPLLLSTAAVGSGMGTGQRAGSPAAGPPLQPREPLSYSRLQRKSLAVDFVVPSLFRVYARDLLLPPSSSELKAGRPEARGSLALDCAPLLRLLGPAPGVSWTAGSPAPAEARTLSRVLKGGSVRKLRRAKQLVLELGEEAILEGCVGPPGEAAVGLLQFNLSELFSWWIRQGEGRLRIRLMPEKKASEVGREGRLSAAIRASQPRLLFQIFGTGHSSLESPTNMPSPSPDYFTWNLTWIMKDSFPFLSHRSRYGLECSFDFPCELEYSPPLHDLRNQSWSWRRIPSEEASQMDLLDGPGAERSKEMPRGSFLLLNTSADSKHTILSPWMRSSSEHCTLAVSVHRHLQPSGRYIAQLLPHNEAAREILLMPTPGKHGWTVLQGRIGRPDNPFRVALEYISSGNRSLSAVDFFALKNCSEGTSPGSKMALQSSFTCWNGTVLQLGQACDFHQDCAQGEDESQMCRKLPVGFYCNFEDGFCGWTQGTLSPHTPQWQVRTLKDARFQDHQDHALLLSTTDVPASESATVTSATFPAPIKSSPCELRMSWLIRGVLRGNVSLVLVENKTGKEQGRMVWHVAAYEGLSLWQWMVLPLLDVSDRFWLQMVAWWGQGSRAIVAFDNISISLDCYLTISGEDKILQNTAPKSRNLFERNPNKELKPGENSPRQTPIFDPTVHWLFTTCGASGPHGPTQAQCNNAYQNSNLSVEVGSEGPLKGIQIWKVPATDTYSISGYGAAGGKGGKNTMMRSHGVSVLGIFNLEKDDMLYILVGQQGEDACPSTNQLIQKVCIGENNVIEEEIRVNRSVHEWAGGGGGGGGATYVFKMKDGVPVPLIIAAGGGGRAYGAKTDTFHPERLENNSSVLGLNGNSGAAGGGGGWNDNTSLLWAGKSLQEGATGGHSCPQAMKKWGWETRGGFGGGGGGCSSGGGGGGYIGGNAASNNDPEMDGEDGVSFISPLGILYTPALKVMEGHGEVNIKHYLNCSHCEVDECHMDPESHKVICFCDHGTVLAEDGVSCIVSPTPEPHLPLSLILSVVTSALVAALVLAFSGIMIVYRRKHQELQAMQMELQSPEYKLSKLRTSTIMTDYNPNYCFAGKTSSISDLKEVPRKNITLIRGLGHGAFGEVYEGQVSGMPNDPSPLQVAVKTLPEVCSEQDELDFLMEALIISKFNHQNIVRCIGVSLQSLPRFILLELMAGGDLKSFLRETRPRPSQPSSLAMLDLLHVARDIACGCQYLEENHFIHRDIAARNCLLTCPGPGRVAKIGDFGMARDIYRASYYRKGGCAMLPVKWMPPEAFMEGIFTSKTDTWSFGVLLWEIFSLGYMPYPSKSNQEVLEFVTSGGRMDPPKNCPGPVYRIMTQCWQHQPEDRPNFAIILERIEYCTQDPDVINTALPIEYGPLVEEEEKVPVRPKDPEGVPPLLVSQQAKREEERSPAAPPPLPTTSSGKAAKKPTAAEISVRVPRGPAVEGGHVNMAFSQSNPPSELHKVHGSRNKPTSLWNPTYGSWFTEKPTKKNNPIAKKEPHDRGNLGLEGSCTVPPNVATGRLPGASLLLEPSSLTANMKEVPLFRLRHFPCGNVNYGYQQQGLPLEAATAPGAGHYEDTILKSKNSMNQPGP
UniProt P10398: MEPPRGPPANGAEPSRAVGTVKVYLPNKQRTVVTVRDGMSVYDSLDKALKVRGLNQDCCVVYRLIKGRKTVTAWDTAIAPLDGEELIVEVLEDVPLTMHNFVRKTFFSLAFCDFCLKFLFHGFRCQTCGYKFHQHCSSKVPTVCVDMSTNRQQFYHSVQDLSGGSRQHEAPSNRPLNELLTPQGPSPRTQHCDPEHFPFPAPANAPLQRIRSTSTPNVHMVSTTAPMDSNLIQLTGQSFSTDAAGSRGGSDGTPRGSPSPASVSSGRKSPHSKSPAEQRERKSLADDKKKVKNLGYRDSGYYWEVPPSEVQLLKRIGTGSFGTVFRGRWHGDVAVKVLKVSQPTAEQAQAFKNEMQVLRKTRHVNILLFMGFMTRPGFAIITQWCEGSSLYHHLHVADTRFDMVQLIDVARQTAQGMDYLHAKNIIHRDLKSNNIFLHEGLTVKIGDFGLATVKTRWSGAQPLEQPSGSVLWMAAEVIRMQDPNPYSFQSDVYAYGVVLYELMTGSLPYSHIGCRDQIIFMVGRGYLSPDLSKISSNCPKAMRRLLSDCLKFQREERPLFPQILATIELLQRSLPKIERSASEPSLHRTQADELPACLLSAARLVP
UniProt Q96GD4, whole entry: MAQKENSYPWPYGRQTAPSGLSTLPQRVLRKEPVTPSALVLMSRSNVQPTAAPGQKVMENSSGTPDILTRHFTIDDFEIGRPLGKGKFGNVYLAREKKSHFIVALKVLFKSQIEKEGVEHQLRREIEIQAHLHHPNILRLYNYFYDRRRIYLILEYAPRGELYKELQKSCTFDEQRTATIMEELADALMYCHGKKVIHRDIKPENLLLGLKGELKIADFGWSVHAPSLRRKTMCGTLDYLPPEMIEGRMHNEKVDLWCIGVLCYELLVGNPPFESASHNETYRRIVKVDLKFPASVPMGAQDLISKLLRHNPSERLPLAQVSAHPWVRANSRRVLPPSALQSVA
UniProt Q9UQB9: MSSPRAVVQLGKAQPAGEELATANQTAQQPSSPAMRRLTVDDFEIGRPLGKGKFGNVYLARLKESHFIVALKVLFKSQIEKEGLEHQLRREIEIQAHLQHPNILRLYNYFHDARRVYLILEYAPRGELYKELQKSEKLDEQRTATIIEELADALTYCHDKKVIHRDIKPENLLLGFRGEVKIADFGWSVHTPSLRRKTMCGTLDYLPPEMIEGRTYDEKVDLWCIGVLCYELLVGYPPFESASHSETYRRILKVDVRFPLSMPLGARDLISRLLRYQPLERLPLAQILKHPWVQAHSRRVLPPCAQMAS
UniProt P51451: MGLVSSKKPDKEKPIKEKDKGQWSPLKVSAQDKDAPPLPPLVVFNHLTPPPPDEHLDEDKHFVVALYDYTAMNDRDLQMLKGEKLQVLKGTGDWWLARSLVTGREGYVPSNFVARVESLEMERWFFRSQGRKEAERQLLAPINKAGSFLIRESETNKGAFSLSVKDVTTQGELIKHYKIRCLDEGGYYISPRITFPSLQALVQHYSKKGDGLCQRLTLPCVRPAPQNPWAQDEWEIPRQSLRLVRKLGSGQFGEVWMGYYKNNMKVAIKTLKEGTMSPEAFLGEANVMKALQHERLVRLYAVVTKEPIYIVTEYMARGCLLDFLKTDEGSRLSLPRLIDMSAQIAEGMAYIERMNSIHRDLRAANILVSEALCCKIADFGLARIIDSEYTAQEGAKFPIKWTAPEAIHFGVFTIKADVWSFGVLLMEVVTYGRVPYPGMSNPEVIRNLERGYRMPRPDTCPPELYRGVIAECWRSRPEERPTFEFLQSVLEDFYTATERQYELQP
UniProt P51813: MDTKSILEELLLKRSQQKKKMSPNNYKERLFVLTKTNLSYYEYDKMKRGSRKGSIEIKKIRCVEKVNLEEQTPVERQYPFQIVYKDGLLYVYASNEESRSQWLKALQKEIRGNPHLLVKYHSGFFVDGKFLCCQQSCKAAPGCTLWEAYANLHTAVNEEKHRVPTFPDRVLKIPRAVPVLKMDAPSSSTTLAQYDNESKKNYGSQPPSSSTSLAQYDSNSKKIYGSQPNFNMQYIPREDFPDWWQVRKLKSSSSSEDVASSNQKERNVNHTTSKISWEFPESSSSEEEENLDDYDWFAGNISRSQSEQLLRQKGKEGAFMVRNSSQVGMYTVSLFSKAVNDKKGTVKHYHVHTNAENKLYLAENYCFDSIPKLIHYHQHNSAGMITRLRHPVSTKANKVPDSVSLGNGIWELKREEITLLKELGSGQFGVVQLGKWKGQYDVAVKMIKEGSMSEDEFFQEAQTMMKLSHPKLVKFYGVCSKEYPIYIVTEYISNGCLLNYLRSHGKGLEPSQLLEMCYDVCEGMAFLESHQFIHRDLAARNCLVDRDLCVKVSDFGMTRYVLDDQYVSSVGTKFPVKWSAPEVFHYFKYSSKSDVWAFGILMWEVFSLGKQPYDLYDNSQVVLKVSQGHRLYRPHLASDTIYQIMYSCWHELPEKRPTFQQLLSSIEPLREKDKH
UniProt P15056, whole entry, looked up: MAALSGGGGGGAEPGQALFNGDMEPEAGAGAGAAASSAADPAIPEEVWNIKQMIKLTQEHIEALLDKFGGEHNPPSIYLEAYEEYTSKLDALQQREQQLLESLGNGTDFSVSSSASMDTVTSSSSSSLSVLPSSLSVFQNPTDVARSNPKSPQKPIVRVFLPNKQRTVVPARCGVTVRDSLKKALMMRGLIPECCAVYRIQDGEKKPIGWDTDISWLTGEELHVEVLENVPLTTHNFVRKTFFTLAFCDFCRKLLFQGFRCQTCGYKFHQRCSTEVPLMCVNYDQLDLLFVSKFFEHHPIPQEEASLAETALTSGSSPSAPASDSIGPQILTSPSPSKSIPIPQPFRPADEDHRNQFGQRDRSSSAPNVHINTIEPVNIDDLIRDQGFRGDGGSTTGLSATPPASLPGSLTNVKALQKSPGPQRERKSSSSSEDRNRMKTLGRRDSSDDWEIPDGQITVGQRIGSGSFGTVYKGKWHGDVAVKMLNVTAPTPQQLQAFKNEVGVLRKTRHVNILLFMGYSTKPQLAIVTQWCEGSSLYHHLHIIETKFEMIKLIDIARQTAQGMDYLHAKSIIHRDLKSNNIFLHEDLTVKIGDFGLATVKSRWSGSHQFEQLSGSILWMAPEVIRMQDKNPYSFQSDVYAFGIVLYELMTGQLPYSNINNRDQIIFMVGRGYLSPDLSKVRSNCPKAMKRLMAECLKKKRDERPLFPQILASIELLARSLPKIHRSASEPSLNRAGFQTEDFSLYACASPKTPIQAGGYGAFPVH

What was measured:
Assay in all cases: kinase-Nluc reporter destabilization hit call (1 = scored as downregulated) (binary); higher = compound decreases kinase abundance
Settings in all cases: K562, 2-18 h
ABL1 = ABL1 (UniProt P00519)
AKT1 = AKT1 (UniProt P31749)
ALK = ALK (UniProt Q9UM73)
ARAF = ARAF (UniProt P10398)
AURKA = AURKA (UniProt O14965)
AURKB = AURKB (UniProt Q96GD4)
AURKC = AURKC (UniProt Q9UQB9)
BLK = BLK (UniProt P51451)
BMX = BMX (UniProt P51813)
BRAF = BRAF (UniProt P15056)

Measured: kinase-Nluc reporter destabilization hit call

CC(C)Nc1cc(-c2c[nH]c(C(=O)N[C@H](CO)c3cccc(Cl)c3)c2)c(Cl)cn1 [Ulixertinib (hydrochloride)]
inactive: ABL1; 10 µM 0 | AKT1; 10 µM 0 | ALK; 10 µM 0 | ARAF; 10 µM 0 | AURKA; 10 µM 0 | AURKB; 10 µM 0 | AURKC; 10 µM 0 | BLK; 10 µM 0 | BMX; 10 µM 0 | BRAF; 10 µM 0

O=C(c1nn(-c2ccc(CN3CCOCC3)cc2)c2c1CS(=O)(=O)c1c(F)cccc1-2)N1CCOCC1
inactive: ABL1; 10 µM 0 | AKT1; 10 µM 0 | ALK; 10 µM 0 | ARAF; 10 µM 0 | AURKA; 10 µM 0 | AURKB; 10 µM 0 | AURKC; 10 µM 0 | BLK; 10 µM 0 | BMX; 10 µM 0 | BRAF; 10 µM 0

CC(C)Oc1ccc(-c2nn([C@@H](C)c3oc4ccc(F)cc4c(=O)c3-c3cccc(F)c3)c3ncnc(N)c23)cc1F [Umbralisib]
inactive: ABL1; 2.5 µM 0 | AKT1; 2.5 µM 0 | ALK; 2.5 µM 0 | ARAF; 2.5 µM 0 | AURKA; 2.5 µM 0 | AURKB; 2.5 µM 0 | AURKC; 2.5 µM 0 | BLK; 2.5 µM 0 | BMX; 2.5 µM 0 | BRAF; 2.5 µM 0

N#CC[C@H](C1CCCC1)n1cc(-c2ncnc3[nH]ccc23)cn1 [Ruxolitinib (phosphate)]
inactive: ABL1; 10 µM 0 | AKT1; 10 µM 0 | ALK; 10 µM 0 | ARAF; 10 µM 0 | AURKA; 10 µM 0 | AURKB; 10 µM 0 | AURKC; 10 µM 0 | BLK; 10 µM 0 | BMX; 10 µM 0 | BRAF; 10 µM 0

Nc1ncnc2c1c(-c1ccc(Oc3ccccc3)cc1)nn2[C@@H]1CCCNC1 [IBT6A (hydrochloride)]
inactive: ABL1; 2.5 µM 0 | AKT1; 2.5 µM 0 | ALK; 2.5 µM 0 | ARAF; 2.5 µM 0 | AURKA; 2.5 µM 0 | AURKB; 2.5 µM 0 | AURKC; 2.5 µM 0 | BLK; 2.5 µM 0 | BMX; 2.5 µM 0 | BRAF; 2.5 µM 0

COc1ncc(F)cc1CNc1ccc(Cc2c[nH]c3ncc(C)cc23)c(F)n1
inactive: ABL1; 10 µM 0 | AKT1; 10 µM 0 | ALK; 10 µM 0 | ARAF; 10 µM 0 | AURKA; 10 µM 0 | AURKB; 10 µM 0 | AURKC; 10 µM 0 | BLK; 10 µM 0 | BMX; 10 µM 0 | BRAF; 10 µM 0

COc1cc2c(Oc3ccc4[nH]c(C)cc4c3F)ncnc2cc1OCCCN1CCCC1 [Cediranib (maleate)]
inactive: ABL1; 2.5 µM 0 | AKT1; 2.5 µM 0 | ALK; 2.5 µM 0 | ARAF; 2.5 µM 0 | AURKA; 2.5 µM 0 | AURKB; 2.5 µM 0 | AURKC; 2.5 µM 0 | BLK; 2.5 µM 0 | BMX; 2.5 µM 0 | BRAF; 2.5 µM 0

CCCCCCCCc1ccc(CCC(N)(CO)CO)cc1 [Fingolimod]
active: ABL1; 2.5 µM 1
inactive: AKT1; 2.5 µM 0 | ALK; 2.5 µM 0 | ARAF; 2.5 µM 0 | AURKA; 2.5 µM 0 | AURKB; 2.5 µM 0 | AURKC; 2.5 µM 0 | BLK; 2.5 µM 0 | BMX; 2.5 µM 0 | BRAF; 2.5 µM 0

Cc1[nH]c(/C=C2\C(=O)Nc3ccc(F)cc32)c(C)c1C(=O)NCCN1CCCC1 [Toceranib]
inactive: ABL1; 2 µM 0 | AKT1; 2 µM 0 | ALK; 2 µM 0 | ARAF; 2 µM 0 | AURKA; 2 µM 0 | AURKB; 2 µM 0 | AURKC; 2 µM 0 | BLK; 2 µM 0 | BMX; 2 µM 0 | BRAF; 2 µM 0

Cc1cc(Nc2ncc(Cl)c(Nc3ccccc3S(=O)(=O)C(C)C)n2)c(OC(C)C)cc1C1CCNCC1 [Ceritinib dihydrochloride]
inactive: ABL1; 2.5 µM 0 | AKT1; 2.5 µM 0 | ALK; 2.5 µM 0 | ARAF; 2.5 µM 0 | AURKA; 2.5 µM 0 | AURKB; 2.5 µM 0 | AURKC; 2.5 µM 0 | BLK; 2.5 µM 0 | BMX; 2.5 µM 0 | BRAF; 2.5 µM 0

C[C@@H](N)c1ccc(C(=O)Nc2ccnc3[nH]ccc23)cc1
inactive: ABL1; 10 µM 0 | AKT1; 10 µM 0 | ALK; 10 µM 0 | ARAF; 10 µM 0 | AURKA; 10 µM 0 | AURKB; 10 µM 0 | AURKC; 10 µM 0 | BLK; 10 µM 0 | BMX; 10 µM 0 | BRAF; 10 µM 0

CCc1nc(C(N)=O)c(Nc2ccc(N3CCC(N4CCN(C)CC4)CC3)c(OC)c2)nc1NC1CCOCC1 [Gilteritinib hemifumarate]
inactive: ABL1; 2 µM 0 | AKT1; 2 µM 0 | ALK; 2 µM 0 | ARAF; 2 µM 0 | AURKA; 2 µM 0 | AURKB; 2 µM 0 | AURKC; 2 µM 0 | BLK; 2 µM 0 | BMX; 2 µM 0 | BRAF; 2 µM 0

Reprinted at random: 2 records from the list
Cc1cc(Nc2ncc(Cl)c(Nc3ccccc3S(=O)(=O)C(C)C)n2)c(OC(C)C)cc1C1CCNCC1 [Ceritinib dihydrochloride]
inactive: ABL1; 2.5 µM 0 | AKT1; 2.5 µM 0 | ALK; 2.5 µM 0 | ARAF; 2.5 µM 0 | AURKA; 2.5 µM 0 | AURKB; 2.5 µM 0 | AURKC; 2.5 µM 0 | BLK; 2.5 µM 0 | BMX; 2.5 µM 0 | BRAF; 2.5 µM 0

Cc1[nH]c(/C=C2\C(=O)Nc3ccc(F)cc32)c(C)c1C(=O)NCCN1CCCC1 [Toceranib]
inactive: ABL1; 2 µM 0 | AKT1; 2 µM 0 | ALK; 2 µM 0 | ARAF; 2 µM 0 | AURKA; 2 µM 0 | AURKB; 2 µM 0 | AURKC; 2 µM 0 | BLK; 2 µM 0 | BMX; 2 µM 0 | BRAF; 2 µM 0

Going on with the list:

COc1ccc(S(=O)(=O)N(CCO)c2ccccc2CN(C)C/C=C/c2ccc(Cl)cc2)cc1 [KN-93 (hydrochloride)]
inactive: AKT1; 2.5 µM 0 | ALK; 2.5 µM 0 | ARAF; 2.5 µM 0 | AURKA; 2.5 µM 0 | AURKB; 2.5 µM 0 | AURKC; 2.5 µM 0 | BLK; 2.5 µM 0 | BMX; 2.5 µM 0 | BRAF; 2.5 µM 0
active: ABL1; 2.5 µM 1

Cn1ncc(Cl)c1-c1cc(C(=O)N[C@H](CN)Cc2cccc(F)c2)sc1Cl [Afuresertib (hydrochloride)]
inactive: ABL1; 10 µM 0 | AKT1; 10 µM 0 | ALK; 10 µM 0 | ARAF; 10 µM 0 | AURKA; 10 µM 0 | AURKB; 10 µM 0 | AURKC; 10 µM 0 | BLK; 10 µM 0 | BMX; 10 µM 0 | BRAF; 10 µM 0

O=C1Nc2ccccc2/C1=C/c1ccccn1 [GSK-3β inhibitor 1]
inactive: ABL1; 10 µM 0 | AKT1; 10 µM 0 | ALK; 10 µM 0 | ARAF; 10 µM 0 | AURKA; 10 µM 0 | AURKB; 10 µM 0 | AURKC; 10 µM 0 | BLK; 10 µM 0 | BMX; 10 µM 0 | BRAF; 10 µM 0
